Experimental data taken from US20130129695A1, “METHODS FOR TREATING OR INHIBITING INFECTION BY CLOSTRIDIUM DIFFICILE” (priority 2010, published 2013).
Some results were stated once for a whole list of compounds, not compound by compound.

Tested on: CD3299 riboswitch
Assay: In-line probing assay, binding of ligands to CD3299 riboswitch
Parameters: species or system Clostridium difficile
Conditions: fixed ligand concentration 100 (glyph)M; compared to the control, Compound A at 100 (glyph)M
Method: An in-line probing assay, as described in Regulski and Breaker, “In-line probing analysis of riboswitches”, (2008), Methods in Molecular Biology, Vol 419, pp 53-67, the contents of which are incorporated by reference, is used to estimate the dissociation binding constants for the interaction of each of the ligands described herein with a CD3299 riboswitch amplified from Clostridium difficile. Precursor mRNA leader molecules are prepared by in vitro transcription from templates generated by PCR and [5′-^32P]-labeling using methods described previously (Regulski and Breaker, In-line probing analysis of riboswitches (2008), Methods in Molecular Biology Vol 419, pp 53-67). Approximately 5 nM of labeled RNA precursor is incubated for 41 hours at 25° C. in 20 mM MgCl2, 50 mM Tris/HCl (pH 8.3 at 25° C.) in the presence or absence of a fixed concentration of each ligand. Binding to the CD3299 riboswitches are measured 100 ? M. In-line cleavage products are separated on 10% polyacrylamide gel electrophoresis (PAGE), and the resulting gel is visualized using a Molecular Dynamics Phosphorimager. […]
In-line probing exploits the natural ability of RNA to self-cleave at elevated pH and metal ion concentrations (pH≈8.3, 25 mM MgCl2) in a conformation-dependent manner. […] These ligand-dependent changes in RNA cleavage can be readily detected by denaturing gel electrophoresis. […]

SMILES | Imax (percent inhibition of in-line cleavage, normalized to control ligand)
Cc1cc2nc3c(=O)[nH]c(=O)nc-3n(CCNCc3ccc(Cl)cc3)c2cc1C [Compound 1] | 45-90
Cc1cc2nc3c(=O)[nH]c(=O)nc-3n(CCNCc3ccccc3)c2cc1C [Compound 2] | 45-90
